The values that follow come from article PMC11540556.

Amino acid sequences for entries named in this document (tags omitted).
UniProt Q8IVF6: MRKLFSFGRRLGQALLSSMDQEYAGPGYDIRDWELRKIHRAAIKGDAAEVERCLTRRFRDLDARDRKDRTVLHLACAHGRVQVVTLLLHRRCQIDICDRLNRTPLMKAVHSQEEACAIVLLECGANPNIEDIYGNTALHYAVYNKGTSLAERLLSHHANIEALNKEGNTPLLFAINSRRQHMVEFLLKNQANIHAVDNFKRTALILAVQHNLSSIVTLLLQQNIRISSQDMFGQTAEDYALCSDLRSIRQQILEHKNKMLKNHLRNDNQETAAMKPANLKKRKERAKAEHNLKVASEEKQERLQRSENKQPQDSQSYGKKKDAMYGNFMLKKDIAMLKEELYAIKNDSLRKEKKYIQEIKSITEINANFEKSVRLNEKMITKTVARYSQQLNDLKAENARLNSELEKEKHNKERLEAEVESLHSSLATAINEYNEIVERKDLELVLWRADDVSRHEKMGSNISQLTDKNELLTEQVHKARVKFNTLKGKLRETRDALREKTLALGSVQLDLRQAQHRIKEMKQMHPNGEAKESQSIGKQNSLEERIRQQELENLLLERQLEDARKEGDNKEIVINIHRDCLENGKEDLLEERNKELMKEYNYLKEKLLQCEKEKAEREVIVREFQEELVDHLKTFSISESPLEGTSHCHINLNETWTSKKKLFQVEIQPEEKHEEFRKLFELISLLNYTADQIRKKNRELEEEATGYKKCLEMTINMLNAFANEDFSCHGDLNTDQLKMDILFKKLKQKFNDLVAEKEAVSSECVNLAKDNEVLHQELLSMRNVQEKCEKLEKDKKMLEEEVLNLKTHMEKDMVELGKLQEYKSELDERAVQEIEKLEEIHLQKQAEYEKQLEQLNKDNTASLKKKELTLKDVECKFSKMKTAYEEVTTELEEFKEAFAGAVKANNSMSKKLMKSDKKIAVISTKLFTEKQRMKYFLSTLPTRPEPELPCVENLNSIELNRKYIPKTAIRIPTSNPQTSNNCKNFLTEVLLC

In the test the target is Flag-Pim-3 (provirus-integrating site for Moloney murine leukemia virus 3) (human) (UniProt Q86V86). The test is described as follows: co-IP; HepG2/SOR cells coexpressing Flag-Pim-3 and HA-ANKRD18A, lysed in an NP40-based buffer; supernatant with anti-FLAG or anti-HA beads for 2 h; Western blot.

Results are given in words; binding and its absence hold for the method and conditions named. Binding seen in cells or lysates may run through a third protein. Some results given as binding are weak or reduced against the parent protein; the word gives no strength.

Regarding “HA-ANKRD18A (Ankyrin repeat domain-containing protein 18A) (from UniProt Q8IVF6 1-992)”, the binding result is on record as “binds”.
